PubChem BioAssay AID1508597, Cure First | 2020
Purpose: 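Survival screen with siRNA in ovarian cancer cells derived from patients, with or without rucaparib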 (primary screen). Cells: human ovarian carcinoma lines grown from tumours: OCI-P5x (papillary serous) and OCI-C5x (clear cell). Knock-down reagent: siRNA pool against human genes, 1.25 pmol siRNA per well. Timing: 72 h or 96 h, depending on the cell culture. Challenge: rucaparib 20 µM (about IC30) or vehicle, present until read-out. Measured: 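Luminescent ATP-based viability assay read 72 or 96 h after transfection, depending on culture, given as normalised percent viability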. Reading the numbers: viability, normalised: higher = more viable cells remaining. Rule for the call: 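Active when normalised viability falls below 80 percent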. Calls: active = viability under 80%; inactive = viability 80% or more.
In all, the deposit lists about 2,100 reagents; shown is a random part of them. 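Calls flag viability under 80% in either arm, not effects specific to rucaparib; the reference for percent is not stated.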 Not given: the 100% reference.

no.	gene	rucaparib or vehicle	cell line	technical replicate	viability, normalised (%)	outcome
1	DGUOK (deoxyguanosine kinase)	Rucaparib	OCI-C5x (clear cell)	1	45.7	active
2	DGUOK (deoxyguanosine kinase)	Rucaparib	OCI-C5x (clear cell)	2	46.6	active
3	DGUOK (deoxyguanosine kinase)	Rucaparib	OCI-C5x (clear cell)	3	54.1	active
4	DGUOK (deoxyguanosine kinase)	Rucaparib	OCI-P5x (serous)	1	78.3	active
5	DGUOK (deoxyguanosine kinase)	Rucaparib	OCI-P5x (serous)	2	83.4	inactive
6	DGUOK (deoxyguanosine kinase)	Rucaparib	OCI-P5x (serous)	3	77.5	active
7	DGUOK (deoxyguanosine kinase)	Vehicle	OCI-C5x (clear cell)	1	45.6	active
8	DGUOK (deoxyguanosine kinase)	Vehicle	OCI-C5x (clear cell)	2	43.3	active
9	DGUOK (deoxyguanosine kinase)	Vehicle	OCI-C5x (clear cell)	3	31.2	active
10	DGUOK (deoxyguanosine kinase)	Vehicle	OCI-P5x (serous)	1	99.9	inactive
11	DGUOK (deoxyguanosine kinase)	Vehicle	OCI-P5x (serous)	2	86.2	inactive
12	DGUOK (deoxyguanosine kinase)	Vehicle	OCI-P5x (serous)	3	71.8	active
13	MYLK2 (myosin light chain kinase 2)	Rucaparib	OCI-C5x (clear cell)	1	31.3	active
14	MYLK2 (myosin light chain kinase 2)	Rucaparib	OCI-C5x (clear cell)	2	46.9	active
15	MYLK2 (myosin light chain kinase 2)	Rucaparib	OCI-C5x (clear cell)	3	36.3	active
16	MYLK2 (myosin light chain kinase 2)	Rucaparib	OCI-P5x (serous)	1	85.9	inactive
17	MYLK2 (myosin light chain kinase 2)	Rucaparib	OCI-P5x (serous)	2	87.6	inactive
18	MYLK2 (myosin light chain kinase 2)	Rucaparib	OCI-P5x (serous)	3	78.5	active
19	MYLK2 (myosin light chain kinase 2)	Vehicle	OCI-C5x (clear cell)	1	44.8	active
20	MYLK2 (myosin light chain kinase 2)	Vehicle	OCI-C5x (clear cell)	2	30.8	active
21	MYLK2 (myosin light chain kinase 2)	Vehicle	OCI-C5x (clear cell)	3	32.4	active
22	MYLK2 (myosin light chain kinase 2)	Vehicle	OCI-P5x (serous)	1	59.9	active
23	MYLK2 (myosin light chain kinase 2)	Vehicle	OCI-P5x (serous)	2	59.3	active
24	MYLK2 (myosin light chain kinase 2)	Vehicle	OCI-P5x (serous)	3	64.1	active
25	RAD52 (RAD52 DNA repair protein)	Rucaparib	OCI-C5x (clear cell)	1	65.1	active
26	RAD52 (RAD52 DNA repair protein)	Rucaparib	OCI-C5x (clear cell)	2	57.6	active
27	RAD52 (RAD52 DNA repair protein)	Rucaparib	OCI-C5x (clear cell)	3	51.8	active
28	RAD52 (RAD52 DNA repair protein)	Rucaparib	OCI-P5x (serous)	1	65.2	active
29	RAD52 (RAD52 DNA repair protein)	Rucaparib	OCI-P5x (serous)	2	71.2	active
30	RAD52 (RAD52 DNA repair protein)	Rucaparib	OCI-P5x (serous)	3	74.1	active
31	RAD52 (RAD52 DNA repair protein)	Vehicle	OCI-C5x (clear cell)	1	45.8	active
32	RAD52 (RAD52 DNA repair protein)	Vehicle	OCI-C5x (clear cell)	2	56.9	active
33	RAD52 (RAD52 DNA repair protein)	Vehicle	OCI-C5x (clear cell)	3	63.5	active
34	RAD52 (RAD52 DNA repair protein)	Vehicle	OCI-P5x (serous)	1	77.1	active
35	RAD52 (RAD52 DNA repair protein)	Vehicle	OCI-P5x (serous)	2	63.4	active
36	RAD52 (RAD52 DNA repair protein)	Vehicle	OCI-P5x (serous)	3	65.5	active
37	HDAC7 (histone deacetylase 7)	Rucaparib	OCI-C5x (clear cell)	1	41.3	active
38	HDAC7 (histone deacetylase 7)	Rucaparib	OCI-C5x (clear cell)	2	43.2	active
39	HDAC7 (histone deacetylase 7)	Rucaparib	OCI-C5x (clear cell)	3	49.5	active
40	HDAC7 (histone deacetylase 7)	Rucaparib	OCI-P5x (serous)	1	74.6	active
41	HDAC7 (histone deacetylase 7)	Rucaparib	OCI-P5x (serous)	2	79.3	active
42	HDAC7 (histone deacetylase 7)	Rucaparib	OCI-P5x (serous)	3	63.3	active
43	HDAC7 (histone deacetylase 7)	Vehicle	OCI-C5x (clear cell)	1	41.2	active
44	HDAC7 (histone deacetylase 7)	Vehicle	OCI-C5x (clear cell)	2	47.4	active
45	HDAC7 (histone deacetylase 7)	Vehicle	OCI-C5x (clear cell)	3	55	active
46	HDAC7 (histone deacetylase 7)	Vehicle	OCI-P5x (serous)	1	69.3	active
47	HDAC7 (histone deacetylase 7)	Vehicle	OCI-P5x (serous)	2	87.1	inactive
48	HDAC7 (histone deacetylase 7)	Vehicle	OCI-P5x (serous)	3	78.8	active
49	SSB (small RNA binding exonuclease protection factor La)	Rucaparib	OCI-C5x (clear cell)	1	58.4	active
50	SSB (small RNA binding exonuclease protection factor La)	Rucaparib	OCI-C5x (clear cell)	2	71.3	active
51	SSB (small RNA binding exonuclease protection factor La)	Rucaparib	OCI-C5x (clear cell)	3	58.8	active
52	SSB (small RNA binding exonuclease protection factor La)	Rucaparib	OCI-P5x (serous)	1	46.8	active
53	SSB (small RNA binding exonuclease protection factor La)	Rucaparib	OCI-P5x (serous)	2	58.8	active
54	SSB (small RNA binding exonuclease protection factor La)	Rucaparib	OCI-P5x (serous)	3	52.5	active
55	SSB (small RNA binding exonuclease protection factor La)	Vehicle	OCI-C5x (clear cell)	1	66.7	active
56	SSB (small RNA binding exonuclease protection factor La)	Vehicle	OCI-C5x (clear cell)	2	47	active
57	SSB (small RNA binding exonuclease protection factor La)	Vehicle	OCI-C5x (clear cell)	3	55.3	active
58	SSB (small RNA binding exonuclease protection factor La)	Vehicle	OCI-P5x (serous)	1	44.5	active
59	SSB (small RNA binding exonuclease protection factor La)	Vehicle	OCI-P5x (serous)	2	47.7	active
60	SSB (small RNA binding exonuclease protection factor La)	Vehicle	OCI-P5x (serous)	3	99	inactive

Reformatted: 6 of the entries above.
gene	rucaparib or vehicle	cell line	technical replicate	viability, normalised (%)	outcome
SSB (small RNA binding exonuclease protection factor La)	Rucaparib	OCI-C5x (clear cell)	1	58.4	active
SSB (small RNA binding exonuclease protection factor La)	Rucaparib	OCI-C5x (clear cell)	2	71.3	active
SSB (small RNA binding exonuclease protection factor La)	Rucaparib	OCI-C5x (clear cell)	3	58.8	active
SSB (small RNA binding exonuclease protection factor La)	Rucaparib	OCI-P5x (serous)	1	46.8	active
SSB (small RNA binding exonuclease protection factor La)	Rucaparib	OCI-P5x (serous)	2	58.8	active
SSB (small RNA binding exonuclease protection factor La)	Rucaparib	OCI-P5x (serous)	3	52.5	active
